In patent US20220177558A1 (INSERM INSTITUT NATIONAL DE LA SANT ET DE LA RECHERCHE M …, published 2022):
These are yes or no findings as the source states them, for the method shown. Some binding calls cover weakened binding; strength is not graded here. Where no end group is shown, it is not given here.

The chains behind the UniProt entries cited, without tags or fusion partners. Where a name states a change or a piece, a line headed by the entry shows the natural chain unless it says otherwise. A line that says so, or that is headed by a name, gives the form on record, which may keep a tag or linker.
AcMet11-Tau (Met11-Tau) protein expressed in cells (P10636, form named): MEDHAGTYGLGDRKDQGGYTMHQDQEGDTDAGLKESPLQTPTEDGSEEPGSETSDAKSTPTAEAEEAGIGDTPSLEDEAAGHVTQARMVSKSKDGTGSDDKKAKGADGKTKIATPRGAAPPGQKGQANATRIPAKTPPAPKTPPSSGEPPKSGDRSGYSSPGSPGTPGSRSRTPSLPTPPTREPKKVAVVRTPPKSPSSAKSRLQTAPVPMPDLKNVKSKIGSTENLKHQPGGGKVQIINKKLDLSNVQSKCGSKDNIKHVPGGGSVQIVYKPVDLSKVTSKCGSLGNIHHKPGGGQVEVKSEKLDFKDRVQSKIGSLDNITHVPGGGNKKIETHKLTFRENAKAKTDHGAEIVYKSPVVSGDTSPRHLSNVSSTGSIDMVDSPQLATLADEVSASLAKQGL
AcMet11-Tau species in Alzheimer's disease brain (P10636, form named): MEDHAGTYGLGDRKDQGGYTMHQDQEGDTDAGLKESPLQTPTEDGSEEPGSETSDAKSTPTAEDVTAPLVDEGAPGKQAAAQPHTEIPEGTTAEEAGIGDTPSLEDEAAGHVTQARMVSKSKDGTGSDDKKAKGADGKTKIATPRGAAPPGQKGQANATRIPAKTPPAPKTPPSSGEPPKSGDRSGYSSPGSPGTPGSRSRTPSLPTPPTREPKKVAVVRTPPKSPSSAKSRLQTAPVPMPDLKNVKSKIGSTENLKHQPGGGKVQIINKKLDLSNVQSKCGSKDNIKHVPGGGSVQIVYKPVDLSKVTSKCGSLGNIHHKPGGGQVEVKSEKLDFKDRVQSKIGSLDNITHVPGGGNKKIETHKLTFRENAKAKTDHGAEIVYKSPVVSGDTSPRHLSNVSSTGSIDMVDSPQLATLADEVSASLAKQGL

What was measured:
[1] = target: AcMet11-Tau (Met11-Tau) protein expressed in cells (human) (UniProt P10636); assay: Western blot of primary neurons infected with lentiviral vectors
[2] = target: AcMet11-Tau (Met11-Tau) protein expressed in cells (human) (UniProt P10636); assay: Western blot of SH-SY5Y cell extracts
[3] = target: AcMet11-Tau species in Alzheimer's disease brain (human) (UniProt P10636); assay: sandwich ELISA on sarkosyl fractions of AD parietal cortex

Measured: binding

B1: 2H2D11 antibody (antibody, IgG2a, V domains shown)
VH: EVRLVESGGGLVQPGGSLRLSCATSGFTFTDYYLSWVRQPPGKAFEWLGFIRNRADGYTTNYSASVKGRFTISRDNSQSILYLQMNTLRVEDSATYYCARDNDHYAMDYWGQGTSVTVSS
VL: DVVMTQTPLSLSVTIGQPASISCKSSQSLLYSNGKTYLNWLQQRPGQAPKHLMYQVSKLDPGIPDRFSGSGSETDFILKISRVEAEDLGIYYCLQGTYYPYTFGGGTKLEIK
notes: also called Mab 2H2D11; monoclonal antibody directed against AcMet11-Tau
binds: all assays above
